Patent US20090239928A1, “N-Pyrrolidin-3YL-Amide Derivatives As Serotonin and Noradrenalin Re-Uptake Inhibitors” (priority 2004, published 2009)
Some entries share one result that the patent states for a list of compounds.

Target: human serotonin and noradrenaline transporters (SERT and NET)
Experiment: SPA radioligand binding, NET and/or SERT (summary statement)
Conditions: at least one of hNET or hSERT, read-out: NRI Ki and/or SRI Ki

SMILES	Ki [nM]
CCCN(C(=O)c1ccccc1Oc1ccc(Cl)cc1)[C@H]1CCNC1 [2-(4-chlorophenoxy)-N-propyl-N-[(3S)-pyrrolidin-3-yl]benzamide]	< 200
CCCN(C(=O)c1ccccc1Oc1ccc(F)cc1)[C@H]1CCNC1 [2-(4-fluorophenoxy)-N-propyl-N-[(3S)-pyrrolidin-3-yl]benzamide]	< 200
CC1(CN(C(=O)c2ccccc2OC(F)F)[C@H]2CCNC2)CC1 [2-(difluoromethoxy)-N-[(1-methylcyclopropyl)methyl]-N-[(3S)-pyrrolidin-3-yl]benzamide]	< 200
CCCN(C(=O)c1ccccc1SCC)[C@H]1CCNC1 [2-(ethylthio)-N-propyl-N-[(3S)-pyrrolidin-3-yl]benzamide]	< 200
CCCN(C(=O)c1ccccc1SC)[C@H]1CCNC1 [2-(methylthio)-N-propyl-N-[(3S)-pyrrolidin-3-yl]benzamide]	< 200
CC(C)CN(C(=O)c1ccccc1Cc1ccccc1)[C@H]1CCNC1 [2-benzyl-N-isobutyl-N-[(3S)-pyrrolidin-3-yl]benzamide]	< 200
CC(C)(C)CN(C(=O)c1ccccc1C1CCC1)[C@H]1CCNC1 [2-cyclobutyl-N-(2,2-dimethylpropyl)-N-[(3S)-pyrrolidin-3-yl]benzamide]	< 200
O=C(c1ccccc1C1CCC1)N(CC1CCC1)[C@H]1CCNC1 [2-cyclobutyl-N-(cyclobutylmethyl)-N-[(3S)-pyrrolidin-3-yl]benzamide]	< 200
O=C(c1ccccc1C1CCC1)N(CC1CC1)[C@H]1CCNC1 [2-cyclobutyl-N-(cyclopropylmethyl)-N-[(3S)-pyrrolidin-3-yl]benzamide]	< 200
O=C(c1ccccc1C1CCC1)N(C1CCCC1)[C@H]1CCNC1 [2-cyclobutyl-N-cyclopentyl-N-[(3S)-pyrrolidin-3-yl]benzamide]	< 200
CC(C)(C)CN(C(=O)c1ccccc1C1CCCC1)[C@H]1CCNC1 [2-cyclopentyl-N-(2,2-dimethylpropyl)-N-[(3S)-pyrrolidin-3-yl]benzamide]	< 200
CCCN(C(=O)c1ccccc1C1CCCC1)[C@H]1CCNC1 [2-cyclopentyl-N-propyl-N-[(3S)-pyrrolidin-3-yl]benzamide]	< 200
CC(C)(C)CN(C(=O)c1ccccc1C1CC1)[C@H]1CCNC1 [2-cyclopropyl-N-(2,2-dimethylpropyl)-N-[(3S)-pyrrolidin-3-yl]benzamide]	< 200
O=C(c1ccccc1Oc1ccccc1)N(C1CCOCC1)[C@H]1CCNC1 [2-phenoxy-N-[(3S)-pyrrolidin-3-yl]-N-(tetrahydro-2H-pyran-4-yl)benzamide]	< 200
O=C(c1ccccc1Oc1ccccc1)N(CC1(C(F)(F)F)CC1)[C@H]1CCNC1 [2-phenoxy-N-[(3S)-pyrrolidin-3-yl]-N-{[1-(trifluoromethyl)cyclopropyl]methyl}benzamide]	< 200
CCCN(C(=O)c1cccc(F)c1Oc1ccccc1)[C@H]1CCNC1 [3-fluoro-2-phenoxy-N-propyl-N-[(3S)-pyrrolidin-3-yl]benzamide]	< 200
O=C(c1ccccc1C1CCCC1)N(C1CCCC1)[C@H]1CCNC1 [N,2-dicyclopentyl-N-[(3S)-pyrrolidin-3-yl]benzamide]	< 200
CCSc1ccccc1C(=O)N(CC(C)(C)C)[C@H]1CCNC1 [N-(2,2-dimethylpropyl)-2-(ethylthio)-N-[(3S)-pyrrolidin-3-yl]benzamide]	< 200
CSc1ccccc1C(=O)N(CC(C)(C)C)[C@H]1CCNC1 [N-(2,2-dimethylpropyl)-2-(methylthio)-N-[(3S)-pyrrolidin-3-yl]benzamide]	< 200
CCSc1ccccc1C(=O)N(CCC1CC1)[C@H]1CCNC1 [N-(2-cyclopropylethyl)-2-(ethylthio)-N-[(3S)-pyrrolidin-3-yl]benzamide]	< 200
CSc1ccccc1C(=O)N(CCC1CC1)[C@H]1CCNC1 [N-(2-cyclopropylethyl)-2-(methylthio)-N-[(3S)-pyrrolidin-3-yl]benzamide]	< 200
O=C(c1ccccc1OCC1CC1)N(CC1CCC1)[C@H]1CCNC1 [N-(cyclobutylmethyl)-2-(cyclopropylmethoxy)-N-[(3S)-pyrrolidin-3-yl]benzamide]	< 200
O=C(c1ccccc1OC(F)F)N(CC1CCC1)[C@H]1CCNC1 [N-(cyclobutylmethyl)-2-(difluoromethoxy)-N-[(3S)-pyrrolidin-3-yl]benzamide]	< 200
O=C(c1ccccc1C1CC1)N(CC1CCC1)[C@H]1CCNC1 [N-(cyclobutylmethyl)-2-cyclopropyl-N-[(3S)-pyrrolidin-3-yl]benzamide]	< 200

SMILES	Ki [nM]
CSc1ccccc1C(=O)N(CC1CCCC1)[C@H]1CCNC1 [N-(cyclopentylmethyl)-2-(methylthio)-N-[(3S)-pyrrolidin-3-yl]benzamide]	< 200
O=C(c1ccccc1C1CC1)N(CC1CCCC1)[C@H]1CCNC1 [N-(cyclopentylmethyl)-2-cyclopropyl-N-[(3S)-pyrrdidin-3-yl]benzamide]	< 200
CC(C)Sc1ccccc1C(=O)N(CC1CC1)[C@H]1CCNC1 [N-(cyclopropylmethyl)-2-(isopropylthio)-N-[(3S)-pyrrolidin-3-yl]benzamide]	< 200
CSc1ccccc1C(=O)N(CC1CC1)[C@H]1CCNC1 [N-(cyclopropylmethyl)-2-(methylthio)-N-[(3S)-pyrrolidin-3-yl]benzamide]	< 200
O=C(c1ccccc1Oc1ccccc1)N(CC1CC1)[C@H]1CCNC1 [N-(cyclopropylmethyl)-2-phenoxy-N-[(3S)-pyrrolidin-3-yl]benzamide]	< 200
CCSc1ccccc1C(=O)N(C(C)CC)[C@H]1CCNC1 (stereo partly drawn) [N-(sec-butyl)-2-(ethylthio)-N-[(3S)-pyrrolidin-3-yl]benzamide]	< 200
CCC(C)N(C(=O)c1ccccc1SC)[C@H]1CCNC1 (stereo partly drawn) [N-(sec-butyl)-2-(methylthio)-N-[(3S)-pyrrolidin-3-yl]benzamide]	< 200
CSc1ccccc1C(=O)N(CC1(C)CC1)[C@H]1CCNC1 [N-[(1-methylcyclopropyl)methyl]-2-(methylthio)-N-[(3S)-pyrrolidin-3-yl]benzamide]	< 200
CC1(CN(C(=O)c2ccccc2Oc2ccccc2)[C@H]2CCNC2)CC1 [N-[(1-methylcyclopropyl)methyl]-2-phenoxy-N-[(3S)-pyrrolidin-3-yl]benzamide]	< 200
O=C(c1ccccc1OC(F)F)N(C1CCC1)[C@H]1CCNC1 [N-cyclobutyl-2-(difluoromethoxy)-N-[(3S)-pyrrolidin-3-yl]benzamide]	< 200
CCSc1ccccc1C(=O)N(C1CCC1)[C@H]1CCNC1 [N-cyclobutyl-2-(ethylthio)-N-[(3S)-pyrrolidin-3-yl]benzamide]	< 200
CSc1ccccc1C(=O)N(C1CCC1)[C@H]1CCNC1 [N-cyclobutyl-2-(methylthio)-N-[(3S)-pyrrolidin-3-yl]benzamide]	< 200
O=C(c1ccccc1Sc1ccccc1)N(C1CCC1)[C@H]1CCNC1 [N-cyclobutyl-2-(phenylthio)-N-[(3S)-pyrrolidin-3-yl]benzamide]	< 200
O=C(c1ccccc1C1CCCC1)N(C1CCC1)[C@H]1CCNC1 [N-cyclobutyl-2-cyclopentyl-N-[(3S)-pyrrolidin-3-yl]benzamide]	< 200
O=C(c1cccc(Oc2ccccc2)c1)N(C1CCC1)[C@H]1CCNC1 [N-cyclobutyl-3-phenoxy-N-[(3S)-pyrrolidin-3-yl]benzamide]	< 200
CCSc1ccccc1C(=O)N(C1CCCCC1)[C@H]1CCNC1 [N-cyclohexyl-2-(ethylthio)-N-[(3S)-pyrrolidin-3-yl]benzamide]	< 200
O=C(c1ccccc1Oc1ccccc1)N(C1CCCCC1)[C@H]1CCNC1 [N-cyclohexyl-2-phenoxy-N-[(3S)-pyrrolidin-3-yl]benzamide]	< 200
O=C(c1ccccc1C1CC1)N(C1CCCC1)[C@H]1CCNC1 [N-cyclopentyl-2-cyclopropyl-N-[(3S)-pyrrolidin-3-yl]benzamide]	< 200
O=C(c1ccccc1Oc1ccccc1)N(C1CC1)C1CCNC1 (stereo not drawn) [N-cyclopropyl-2-phenoxy-N-pyrrolidin-3-yl]benzamide]	< 200
CCN(C(=O)c1ccccc1Oc1ccc(F)cc1)[C@H]1CCNC1 [N-ethyl-2-(4-fluorophenoxy)-N-[(3S)-pyrrolidin-3-yl]benzamide]	< 200
CCN(C(=O)c1cc(F)ccc1Oc1ccccc1)[C@H]1CCNC1 [N-ethyl-5-fluoro-2-phenoxy-N-[(3S)-pyrrolidin-3-yl]benzamide]	< 200
CSc1ccccc1C(=O)N(CC(C)C)[C@H]1CCNC1 [N-isobutyl-2-(methylthio)-N-[(3S)-pyrrolidin-3-yl]benzamide]	< 200
CC(C)N(C(=O)c1ccccc1Oc1ccccc1)[C@H]1CCNC1 [N-isopropyl-2-phenoxy-N-[(3S)-pyrrolidin-3-yl]benzamide]	< 200
CN(C(=O)c1ccccc1Oc1ccccc1)[C@H]1CCNC1 [N-methyl-2-phenoxy-N-[(3S)-pyrrolidin-3-yl]benzamide]	< 200
